Where a name gives a salt, the structure may show the parent alone. The list shows a part of the results. Single values are uncertain here, since repeats match poorly.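 A first-round screen of about ten thousand compounds sought those raising reporter output, using human embryonic kidney cells briefly transfected with a plasmid carrying a Renilla luciferase gene driven by the HSV-TK promoter.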
tested on: HEK 293FT; experiment: log relative Renilla luciferase luminescence (reporter expression vs reference, reference not stated) (log (base not stated)); higher = higher recombinant reporter expression; details: 10 µM; time after transfection 48 h

SMILES	log
CS(=O)(=O)c1ccc([C@@H](O)[C@@H](CO)NC(=O)C(Cl)Cl)cc1 [Thiamphenicol]	0.104
O=c1[nH]cc(F)c(=O)[nH]1 [5-fluorouracil]	0.0695
C[C@]12C=CC(=O)C=C1CC[C@@H]1[C@@H]2[C@@H](O)C[C@@]2(C)[C@H]1CC[C@]2(O)C(=O)CO [Prednisolone]	0.0384
O=C1C(CC[S+]([O-])c2ccccc2)C(=O)N(c2ccccc2)N1c1ccccc1 (stereo not given) [Sulfinpyrazone]	0.102
NS(=O)(=O)c1cc2c(cc1Cl)N=C(CSCc1ccccc1)NS2(=O)=O [Benzthiazide]	-0.236
CC(=O)O[C@]1(C(C)=O)CC[C@H]2[C@@H]3C=C(C)C4=CC(=O)CC[C@@H]4[C@H]3CC[C@@]21C [Nomegestrol acetate]	0.127
CO[C@@]1(NC(=O)C(C(=O)O)c2ccc(O)cc2)C(=O)N2C(C(=O)O)=C(CSc3nnnn3C)CO[C@@H]21 (stereo not given in full) [Moxalactam disodium salt]	-0.0476
C#C[C@]1(O)CC[C@H]2[C@@H]3CCC4=CC(=O)CC[C@@H]4[C@H]3CC[C@@]21C [Norethindrone]	0.0503
C#C[C@]1(OC(C)=O)CC[C@H]2[C@@H]3CCC4=C[C@@H](OC(C)=O)CC[C@@H]4[C@H]3CC[C@@]21C [Ethynodiol diacetate]	-0.203
Nc1ccc(S(=O)(=O)Nc2ncccn2)cc1 [Sulfadiazine]	-0.0974
Clc1ccccc1CN1CCc2sccc2C1 [Ticlopidine hydrochloride]	0.0896
CCN(CC)CCOC(=O)C1(c2ccc([N+](=O)[O-])cc2)CCCC1 [Nitrocaramiphen hydrochloride]	-0.185
CN(C)CCCN1c2ccccc2CCc2ccc(Cl)cc21 [Clomipramine hydrochloride]	0.0484
CO[C@@]1(NC(=O)C2SC(=C(C(N)=O)C(=O)O)S2)C(=O)N2C(C(=O)O)=C(CSc3nnnn3C)CS[C@@H]21 (stereo not given in full) [Cefotetan]	-0.172
Cc1cc(C(C)(C)CC(C)(C)C)ccc1OCCOCC[N+](C)(C)Cc1ccccc1 [Methyl benzethonium chloride]	-1.45
Cc1cc(NC(=O)C2=C(O)c3ccccc3S(=O)(=O)N2C)no1 [Isoxicam]	0.00284
COC(=O)C1=C(C)NC(C)=C(C(=O)OC)C1c1ccccc1[N+](=O)[O-] [Nifedipine]	0.0542
C#C[C@]1(O)CC[C@H]2[C@@H]3CCc4cc(OC)ccc4[C@H]3CC[C@@]21C [Ethynylestradiol 3-methyl ether]	-0.141
CC(C)NCC(O)c1ccc(NS(C)(=O)=O)cc1 (stereo not given) [Sotalol hydrochloride]	-0.0605
CC(=O)N1CCN(c2ccc(OCC3COC(Cn4ccnc4)(c4ccc(Cl)cc4Cl)O3)cc2)CC1 (stereo not given) [Ketoconazole]	-0.363
CCN(CC)CCCC(C)Nc1c2ccc(Cl)cc2nc2ccc(OC)cc12 (stereo not given) [Quinacrine dihydrochloride dihydrate]	0.212
CCCCCCCCCCCCCCCC[N+](C)(C)CCN(Cc1ccc(OC)cc1)c1ncccn1 [Thonzonium bromide]	-0.995
CNC(=C[N+](=O)[O-])NCCSCc1ccc(CN(C)C)o1 [Ranitidine hydrochloride]	0.229
COC(=O)[C@H]1[C@H]2C[C@@H]3c4[nH]c5cc(OC)ccc5c4CCN3C[C@H]2C[C@@H](OC(=O)c2cc(OC)c(OC)c(OC)c2)[C@@H]1OC [Reserpine]	0.0032

SMILES	log
CCOC(=O)Nc1ccc2c(c1)N(C(=O)CCN1CCOCC1)c1ccccc1S2 [Moricizine hydrochloride]	0.0377
CCc1cc(C(N)=S)ccn1 [Ethionamide]	0.0424
CCC(=O)[C@@]1(C)[C@H](C)C[C@H]2[C@@H]3CCC4=CC(=O)C=C[C@]4(C)[C@H]3[C@@H](O)C[C@@]21C [Rimexolone]	-0.615
CN(N=O)C(=O)N[C@@H](C=O)[C@@H](O)[C@H](O)[C@H](O)CO [Streptozotocin]	-0.0449
O=C(N/N=C/c1ccc([N+](=O)[O-])o1)c1ccc(O)cc1 [Nifuroxazide]	-1.12
CN1CCN(C(c2ccccc2)c2ccc(Cl)cc2)CC1 (stereo not given) [Chlorcyclizine hydrochloride]	0.232
O=C1C=CC(=O)c2c1ccc1c2ccc2ccccc21 [Chrysene-1,4-quinone]	-0.172
CC(C)(O/N=C(\C(=O)N[C@@H]1C(=O)N2C(C(=O)[O-])=C(C[n+]3ccccc3)CS[C@H]12)c1csc(N)n1)C(=O)O [Ceftazidime pentahydrate]	-0.103
Cc1ccc(/C(=C\CN2CCCC2)c2ccccn2)cc1 [Triprolidine hydrochloride]	0.0581
Cc1c(Cl)cccc1Nc1ncccc1C(=O)O [Clonixin Lysinate]	0.102
C[C@H]1[C@H](NC(=O)/C(=N\OC(C)(C)C(=O)O)c2csc(N)n2)C(=O)N1S(=O)(=O)O [Aztreonam]	0.107
CNCCC=C1c2ccccc2CCc2ccccc21 [Nortriptyline hydrochloride]	-0.0265
CCc1c2c(nc3ccc(OC(=O)N4CCC(N5CCCCC5)CC4)cc13)-c1cc3c(c(=O)n1C2)COC(=O)[C@]3(O)CC [Irinotecan Hydrochloride]	0.0364
CCn1cc(C(=O)O)c(=O)c2cc(F)c(N3CCNC(C)C3)c(F)c21 (stereo not given) [Lomefloxacin hydrochloride]	0.171
COc1cc(C)nc(-n2nc(C)cc2OC)n1 [Epirizole]	0.117
CS(=O)(=O)Nc1ccc([N+](=O)[O-])cc1Oc1ccccc1 [Nimesulide]	-0.167
CNC(=C[N+](=O)[O-])NCCSCc1csc(CN(C)C)n1 [Nizatidine]	0.121
C[C@]12C=CC(=O)C=C1CC[C@@H]1[C@@H]2C(=O)C[C@@]2(C)[C@H]1CC[C@]2(O)C(=O)CO [Prednisone]	0.0806
C[C@@H]1CN(c2c(F)c(N)c3c(=O)c(C(=O)O)cn(C4CC4)c3c2F)C[C@H](C)N1 [Sparfloxacin]	0.0842
CCn1cc(C(=O)O)c(=O)c2cc(F)c(N3CCN(C)CC3)cc21 [Pefloxacine]	0.148
CC[C@]12CCCN3CCc4c(n(c5ccccc45)C(=O)C1)[C@@H]32 [Eburnamonine (-)]	-0.00193
CC(=O)Oc1cc(C(C)C)c(OCCN(C)C)cc1C [Moxisylyte hydrochoride]	0.0713
CC(c1cc2ccccc2s1)N(O)C(N)=O (stereo not given) [Zileuton]	-0.114
COc1cc(C)c(/C=C/C(C)=C/C=C/C(C)=C/C(=O)O)c(C)c1C [Acitretin]	0.0484

2 compounds picked at random from those above:
SMILES	log
CNC(=C[N+](=O)[O-])NCCSCc1csc(CN(C)C)n1 [Nizatidine]	0.121
CC(C)(O/N=C(\C(=O)N[C@@H]1C(=O)N2C(C(=O)[O-])=C(C[n+]3ccccc3)CS[C@H]12)c1csc(N)n1)C(=O)O [Ceftazidime pentahydrate]	-0.103

Later entries

SMILES	log
CN(C)CCC=C1c2ccccc2C=Cc2ccccc21 [Cyclobenzaprine hydrochloride]	-0.0505
NS(=O)(=O)c1cc2c(cc1Cl)NCNS2(=O)=O [Hydrochlorothiazide]	-0.138
C[N+]1(C)CCC(=C(c2ccccc2)c2ccccc2)CC1 [Diphemanil methylsulfate]	0.105
CNNCc1ccc(C(=O)NC(C)C)cc1 [Procarbazine hydrochloride]	0.0808
O=c1[nH]c(=O)n([C@H]2C[C@H](O)[C@@H](CO)O2)cc1F [Floxuridine]	-0.819
COc1cc2nc(N3CCN(C(=O)C4CCCO4)CC3)nc(N)c2cc1OC (stereo not given) [Terazosin hydrochloride]	-0.0145
Nc1ccc(S(=O)(=O)Nc2ccc(Cl)nn2)cc1 [Sulfachloropyridazine]	0.129
CN(C)CCCOc1nn(Cc2ccccc2)c2ccccc12 [Benzydamine hydrochloride]	0.137
C#C[C@]1(O)CC[C@H]2[C@@H]3[C@H](C)CC4=C(CCC(=O)C4)[C@H]3CC[C@@]21C [Tibolone]	-0.876
CC(=O)OCC(=O)[C@@]1(O)CC[C@H]2[C@@H]3CCC4=CC(=O)C=C[C@]4(C)[C@@]3(F)[C@@H](O)C[C@@]21C [Isoflupredone acetate]	0.0896
CO[C@@H]1[C@@H](OC(N)=O)[C@@H](O)[C@H](Oc2ccc3c(O)c(NC(=O)c4ccc(O)c(CC=C(C)C)c4)c(=O)oc3c2C)OC1(C)C [Novobiocin sodium salt]	-0.144
CCN1CCN(C(=O)N[C@@H](C(=O)N[C@@H]2C(=O)N3[C@@H]2SC(C)(C)[C@@H]3C(=O)O)c2ccccc2)C(=O)C1=O [Piperacillin sodium salt]	-0.065
CCCC(=O)Nc1ncnc2c1ncn2[C@@H]1O[C@@H]2COP(=O)(O)O[C@H]2[C@H]1OC(=O)CCC [Bucladesine sodium salt]	-0.162
CN(C)CCC[C@@]1(c2ccc(F)cc2)OCc2cc(C#N)ccc21 [Escitalopram]	-0.121
CN1CCCC(n2nc(Cc3ccc(Cl)cc3)c3ccccc3c2=O)CC1 (stereo not given) [Azelastine HCl]	-0.00359
CN1CCCCC1CCN1c2ccccc2Sc2ccc([S+](C)[O-])cc21 (stereo not given) [Mesoridazine besylate]	0.107
NC(=O)N/N=C/c1ccc([N+](=O)[O-])o1 [Nitrofural]	-0.00375
CC(=O)Oc1cccc2c1C(=O)c1c(OC(C)=O)cc(C(=O)O)cc1C2=O [Diacerein]	-0.597
C=C1C[C@H]2[C@@H]3C=C(C)C4=CC(=O)CC[C@]4(C)[C@H]3CC[C@]2(C)[C@@]1(OC(C)=O)C(C)=O [Melengestrol acetate]	-1.22
OCCN1CCN(CCCN2c3ccccc3Sc3ccc(Cl)cc32)CC1 [Perphenazine]	0.0781
OC[C@H]1O[C@@H](Oc2ccc(O)cc2)[C@H](O)[C@@H](O)[C@@H]1O [Arbutin]	0.0444
Nc1ccc(S(=O)(=O)c2ccc(N)cc2)cc1 [Dapsone]	0.178

Exported comma-delimited: 5 of the compounds above
SMILES,log
CC(=O)O[C@]1(C(C)=O)CC[C@H]2[C@@H]3C=C(C)C4=CC(=O)CC[C@@H]4[C@H]3CC[C@@]21C [Nomegestrol acetate],0.127
CCn1cc(C(=O)O)c(=O)c2cc(F)c(N3CCNC(C)C3)c(F)c21 (stereo not given) [Lomefloxacin hydrochloride],0.171
CNC(=C[N+](=O)[O-])NCCSCc1csc(CN(C)C)n1 [Nizatidine],0.121
CN(C)CCCOc1nn(Cc2ccccc2)c2ccccc12 [Benzydamine hydrochloride],0.137
OCCN1CCN(CCCN2c3ccccc3Sc3ccc(Cl)cc32)CC1 [Perphenazine],0.0781

From the supplement of paper PMC7024190
